Measurements reported in patent US10787483B2 (Agency for Science, Technology and Research, priority 2014, dated 2020).

Assay: general procedure: Fmoc solid-phase peptide synthesis; 2-chlorotrityl chloride resin; HBTU, DIPEA
Conditions: whole synthesis; for isolated yield: scale of the general procedure 0.5 mmol

Substance	isolated mass [mg]	isolated yield [%]	isolated yield (overall) [% overall yield]
Arg-(B-peptoid) compound	24	6.5	
Bip-Arg-Bip-agmantine	4.1		6
